The reference is the same well before dosing, and untreated signal decays as well.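 Fibroblast labels name human fibroblasts: mostly primary ones from tissues such as uterus (C12385, HUF), lung (H6013), bone (Hs27A), adrenal (HADF) and skin (WS1), plus mammary HMF and breast cancer-associated Hs343T. The cancer cells are basal-like or mesenchymal-like triple-negative breast cancer lines. The paper calls a changed response a hit when it shifts by more than 3x the replicate standard deviation. The tissue of the other fibroblasts is not given here.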
System: MDAMB231
Assay: relative JC-1 red fluorescence (viability) vs pre-drug, coculture with fibroblast (fraction); higher = more viable cancer cells
Settings: 100 µM
Description: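 JC-1 labelled TNBC cells cocultured 1:1 (1,500 cells each) with CellTrace Violet stained primary or stromal fibroblasts in 384-well plates in FluoroBrite medium, treated with one of 42 anticancer drugs at 0.1, 1, 10 or 100 uM. JC-1 red fluorescence (mitochondrial integrity in cancer cells only) was read by plate reader every 8 h for 72 h. Values are normalised to each well's pre-drug value. The stock of one drug was tenfold lower, so its dose labels may be too high.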

CC(C)(C#N)c1cc(Cn2cncn2)cc(C(C)(C)C#N)c1 [Anastrozole]
relative JC-1 red fluorescence
Settings | 40 h | 48 h | 56 h | 64 h | 72 h
coculture fibroblast: C12385 | – | 0.673 | 0.638 | 0.634 | 0.616
coculture fibroblast: H6013 | – | 0.815 | 0.819 | 0.792 | 0.76
coculture fibroblast: H6019 | – | 0.766 | 0.725 | 0.714 | 0.676
coculture fibroblast: H6076 | – | 0.736 | 0.721 | 0.718 | 0.706
coculture fibroblast: H6231 | – | 0.7314 | 0.6857 | 0.6674 | 0.6305
coculture fibroblast: HADF | – | 0.76 | 0.7687 | 0.7594 | 0.724
coculture fibroblast: HCFa | – | 0.799 | 0.7584 | 0.72274 | 0.6759
coculture fibroblast: HCPF | – | 0.697 | 0.6665 | 0.639 | 0.608
coculture fibroblast: HHSteC | 0.809 | 0.785 | 0.762 | 0.745 | 0.711
coculture fibroblast: HMF | 0.742 | 0.717 | 0.6771 | 0.662 | 0.643
coculture fibroblast: HPFa | 0.83 | 0.798 | 0.746 | 0.727 | 0.679
coculture fibroblast: HUF | 0.6569 | 0.635 | 0.5765 | 0.561 | 0.539
coculture fibroblast: Hs5 | 0.747 | 0.702 | 0.6683 | 0.6425 | 0.617
coculture fibroblast: Hs27A | 0.767 | 0.696 | 0.718 | 0.698 | 0.657
coculture fibroblast: Hs343T | 0.794 | 0.764 | 0.725 | 0.711 | 0.691
coculture fibroblast: WS1 | 0.6167 | 0.5975 | 0.5591 | 0.5485 | 0.515

Reference: the supplement of paper PMC6078165
